# Hit rate of the full screen: of about 320,000 compounds, about 620 (0.19%) were called active. Inconclusive results, whose numbers are uncertain, are shown with a selection of clear calls. Rule as the data show it: active = activation above about 80%; inconclusive = between about 30% and that limit; inactive = weaker than that.
# Sequences of proteins named here, by UniProt entry; tags and fusion partners are left off.
# UniProt Q8NER1, whole entry, looked up: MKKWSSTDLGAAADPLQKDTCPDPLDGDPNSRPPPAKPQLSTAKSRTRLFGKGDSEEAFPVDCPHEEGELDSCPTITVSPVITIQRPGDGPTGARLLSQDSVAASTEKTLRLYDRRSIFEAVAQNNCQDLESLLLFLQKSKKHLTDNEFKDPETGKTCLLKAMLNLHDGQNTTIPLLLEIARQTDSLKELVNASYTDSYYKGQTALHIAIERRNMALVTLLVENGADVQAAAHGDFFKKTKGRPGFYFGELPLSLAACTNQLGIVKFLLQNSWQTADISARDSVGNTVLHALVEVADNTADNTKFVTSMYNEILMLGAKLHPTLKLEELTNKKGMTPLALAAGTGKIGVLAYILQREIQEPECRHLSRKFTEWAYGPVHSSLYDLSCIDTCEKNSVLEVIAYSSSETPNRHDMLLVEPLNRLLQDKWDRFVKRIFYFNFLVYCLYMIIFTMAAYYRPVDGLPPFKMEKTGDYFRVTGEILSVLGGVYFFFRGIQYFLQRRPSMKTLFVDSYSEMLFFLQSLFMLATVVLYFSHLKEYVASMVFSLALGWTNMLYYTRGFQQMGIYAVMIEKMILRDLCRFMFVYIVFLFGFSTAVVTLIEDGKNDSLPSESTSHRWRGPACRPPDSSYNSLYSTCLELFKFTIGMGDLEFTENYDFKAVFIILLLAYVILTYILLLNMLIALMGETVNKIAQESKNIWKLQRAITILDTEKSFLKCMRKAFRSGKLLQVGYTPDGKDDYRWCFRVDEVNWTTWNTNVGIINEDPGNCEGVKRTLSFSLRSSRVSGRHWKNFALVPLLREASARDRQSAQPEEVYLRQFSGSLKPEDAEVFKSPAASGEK
# Target: Transient receptor potential cation channel subfamily V member 1 (Homo sapiens) (UniProt Q8NER1)
# Assay: HTS Assay for Compounds that Act as Agonists of the Vanilloid Receptor 1; also: 0% is about no effect
# Conditions: TRPV1-expressing cells, Fluo-8 calcium influx, agonist mode; at 8.33 µM, active compounds read high
# In short: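 Fluo-8 calcium influx in TRPV1-expressing cells, kinetic read (ex 480/em 520 nm). Compound added and read 3 min for agonist activity, followed by capsaicin at EC20 final and 2 min further read for enhancement.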
row,Compound,activation
1,O=C(Cn1cc(SCc2cccc(Cl)c2)c2ccccc21)N1CCOCC1,inactive: -1.75%
2,O=C(NC(=S)NCCc1ccc(Cl)cc1)c1ccco1,inactive: 18.2%
3,Cc1ccc(C(=O)CSc2nccn2-c2ccccc2)cc1,inconclusive: 59.4%
4,COC(=O)c1cccc(NC(=O)CCCOc2ccccc2)c1,inconclusive: 44.6%
5,Cc1nc2c(-c3ccc(F)cc3)c(C)nn2c(C)c1CCC(=O)Nc1ccccc1,inconclusive: 61.1%
6,Cc1ccc2nc(NC(=O)c3ccccn3)sc2c1,inconclusive: 31.7%
7,CCCOC(=O)/C(=C\C=C\c1ccccc1)NC(=O)c1ccccc1,inconclusive: 44.1%
8,CCOC(=O)c1c(NC(=O)CSc2nnnn2-c2ccccc2)sc2c1CC(C)(C)NC2(C)C,inactive: 13.7%
9,CCOC(=O)c1cnc2ccc(C(=O)OC)cc2c1Nc1ccc2c(c1)OCCO2,inconclusive: 57.3%
10,C=C(C)c1cccc(C(C)(C)NC(=O)Nc2ccc(C(N)=O)cc2)c1,inconclusive: 76.8%
11,CCCCN(C)C(=S)Nc1ccsc1C(=O)OC,inactive: 6.06%
12,Cc1cc(-c2nn(-c3ccccc3F)cc2CNCCc2cnccn2)c(C)s1,inconclusive: 32.3%
13,O=C(CCc1ccncc1)NC1CCCc2c1cnn2-c1cc(F)cc(F)c1 (stereo not drawn),inconclusive: 49%
14,Cc1ccc(-c2nc(-c3ccncc3)no2)cc1C,inactive: 13.6%
15,Cc1c(Cl)cn2c(=O)cc(CN(C)Cc3nc4ccccc4c(=O)[nH]3)nc2c1Cl,inactive: 0.0435%
16,Cc1ccc(OCCC(=O)OCC(=O)NCc2ccccc2)cc1,inconclusive: 52.1%
17,COC(=O)c1ccc(C)c(NC(=O)CCSc2ccc(Cl)cc2)c1,inactive: 3.87%
18,CCNC(=S)N/N=C(\C)c1ccc(Cl)s1,inconclusive: 43%
19,Fc1ccccc1NC(=S)NCCc1cccc(Cl)c1,inconclusive: 46.7%
20,COc1cc(CN(C)Cc2cc(=O)n3ccsc3n2)ccc1OC(F)F,inactive: -0.673%

row,Compound,activation
1,Cc1cc(C)nc(NC(=O)CSc2nc3ccccc3o2)n1,inactive: -5.33%
2,Cc1ccc2c(c1)C(c1ccccc1)N(C(=O)c1cc3ccccc3oc1=O)CC(=O)N2 (stereo not drawn),inconclusive: 39.5%
3,COc1cc2c(cc1OC)C(NC(=O)C(F)(F)F)CNC2=O (stereo not drawn),inactive: -2.01%
4,Cc1ccc(NC(=O)c2ccc3c(c2)OCO3)cc1S(=O)(=O)N1CCOCC1,inconclusive: 60.6%
5,CCCSc1nc2c(cnn2-c2ccccc2)c(=O)n1N,inconclusive: 46.4%
6,CC(C)CN(CC(C)C)C(=O)CN1c2cccc3cccc(c23)S1(=O)=O,inconclusive: 43.4%
7,O=C(NNC(=S)NC1CCCCC1)c1sc2ccccc2c1Cl,inconclusive: 47.9%
8,COCCN(CC(=O)Nc1cccc(C)c1C)C(=O)c1ccc2ccccc2n1,inactive: 5.07%
9,CCN(CC)CCNC(=O)c1ccc(NC(=O)c2cccc(S(=O)(=O)N3CCc4ccccc43)c2)cc1,inactive: 14.4%
10,CSc1nnc(C(C)(C)C)c(=O)n1/N=C/c1ccccc1,inconclusive: 51.4%
11,Cc1ccc(Nc2nc(C(=O)NCc3ccco3)cs2)cc1,inconclusive: 67.9%
12,Cc1ccc(NC(=O)C2CCN(C(=O)NC3CCCCC3)CC2)cc1Cl,inconclusive: 32.2%
13,Cc1cccc(-c2noc(CCC(=O)NCc3ccccc3)n2)c1,inconclusive: 40.6%
14,COc1ccc(OC)c(NC(=S)NC(=O)c2ccc(Br)o2)c1,inconclusive: 44.8%
15,O=C(NCc1ccccc1Cl)c1cccc(C(F)(F)F)c1,inconclusive: 58%
16,COc1ccc(S(=O)(=O)N2CCCCCC2)cc1Br,inconclusive: 41.2%
17,COc1cccc(C2C(C(=O)c3ccc(C)o3)=C(O)C(=O)N2CCN2CCOCC2)c1 (stereo not drawn),inactive: -6.26%
18,CC1CC(C)CN(C(=O)CCNS(=O)(=O)c2ccc3c(c2)CCC(=O)N3)C1 (stereo not drawn),inconclusive: 54.4%
19,CC(C)CN(CC(C)C)C(=O)COn1nnc2ccc(S(=O)(=O)N3CCOCC3)cc21,inconclusive: 34.6%
20,CC(C)(C)n1nc(-c2ccc(F)cc2)c2c(N)ncnc21,inconclusive: 33%

row,Compound,activation
1,COC(=O)c1cc(Oc2ccc(C(=O)OC)cc2N)cc(C(=O)OC)c1,inconclusive: 46%
2,CCOC(=O)c1c(C)[nH]c(C(=O)COC(=O)CNC(=O)c2ccc(Cl)cc2Cl)c1C,inactive: -2.58%
3,CCC1OC23CCCCC2C(C#N)(C(=N)O3)C1(C#N)C#N (stereo not drawn),inconclusive: 59.5%
4,Cc1cccc(NC(=O)C2C(c3ccccc3)C2(Cl)Cl)c1C (stereo not drawn),inconclusive: 35.4%
5,CCNc1nc(NCC)nc(N/N=C/c2ccc(N(C)C)cc2)n1,inactive: -1.38%
6,Cc1ccc(C(=O)Nc2ccncc2)c(Cl)c1,inconclusive: 43.2%
7,O=C(CSc1cn(Cc2cccc(F)c2)c2ccccc12)NCc1ccc(F)cc1,inconclusive: 38.7%
8,FC(F)(F)c1cc(CCN2C(=S)NC[C@@H]2Cc2ccccc2)cc(C(F)(F)F)c1,inactive: 3.18%
9,Cc1ccc(C(=O)OCC(=O)N(C)c2ccccc2)c(C)c1,inconclusive: 36.2%
10,COc1ccc(CNCC(O)(c2ccccc2)c2ccc(F)cc2)cc1OC (stereo not drawn),inactive: 0.968%
11,Cc1ccc(F)c(NC(=O)/C(C#N)=C(\O)c2ccc(C(C)(C)C)cc2)c1,inactive: 0.747%
12,CCN1C(=O)CSC1=Nc1ccccc1Cl,inactive: 2.97%
13,CCOC(=O)N1CCN(C(=O)/C=C/c2ccc(C(C)(C)C)cc2)CC1,inconclusive: 32.5%
14,O=C(CSc1ccccn1)N1CCCC(Nc2ccccc2)C1 (stereo not drawn),inconclusive: 80%
15,CC(=O)Nc1cccc(OCC(=O)NC(C)c2ccc3ccccc3c2)c1 (stereo not drawn),inconclusive: 79.1%
16,CC(C)Oc1ccc(C(=O)Nc2ccc([N+](=O)[O-])cc2)cc1,inconclusive: 36.3%
17,COc1cccc(NC(=O)CN(C)C(=O)/C=C/c2cn(-c3ccccc3)nc2-c2ccc(C)cc2)c1,inconclusive: 30.5%
18,S=C(NCc1ccc2c(c1)OCO2)NCc1ccco1,inconclusive: 49.4%

# Compounds listed so far containing bromine:
row,Compound,activation
14,COc1ccc(OC)c(NC(=S)NC(=O)c2ccc(Br)o2)c1,inconclusive: 44.8%
16,COc1ccc(S(=O)(=O)N2CCCCCC2)cc1Br,inconclusive: 41.2%
